# Results reported in patent US20080254026A1.
# Chains of the proteins cited; added tags and fusions are not shown. Lines headed by an entry give the natural chain unless they say otherwise; changes in a name come on top.
# UniProt P25942: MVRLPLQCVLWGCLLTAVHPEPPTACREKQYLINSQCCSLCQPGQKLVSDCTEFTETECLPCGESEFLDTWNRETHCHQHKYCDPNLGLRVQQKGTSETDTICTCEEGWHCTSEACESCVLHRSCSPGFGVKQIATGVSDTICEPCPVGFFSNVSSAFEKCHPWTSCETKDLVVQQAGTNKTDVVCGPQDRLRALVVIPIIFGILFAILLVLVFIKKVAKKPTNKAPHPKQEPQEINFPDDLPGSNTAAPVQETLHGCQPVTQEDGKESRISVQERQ
# These are yes or no findings as the source states them, for the method shown. Some results given as binding are weak or reduced against the parent protein; the word gives no strength.
# Biological target: Recombinant soluble CD40-his (human) (UniProt P25942)
# Assay: complex formed in solution for the Biacore competition study
binder,measurement,value
"CHIR-5.9 Fab (Fab, V domains shown) VH: EVQLVQSGAEVKKPGESLKISCKGSGYSFTSYWIGWVRQMPGKGLEWMGIIYPGDSDTRYSPSFQGQVTISADKSISTAYLQWSSLKASDTAMYYCARGTAAGRDYYYYYGMDVWGQGTTVTVSS VL: AIVMTQPPLSSPVTLGQPASISCRSSQSLVHSDGNTYLNWLQQRPGQPPRLLIYKFFRRLSGVPDRFSGSGAGTDFTLKISRVEAEDVGVYYCMQVTQFPHTFGQGTRLEIKR",binding,binds
